Where a name gives a salt, the structure may show the parent alone. This is one part of the list. Small differences around the control level are noise.
System: hPSC-derived cortical neurons (WA09)
Assay: KCl-induced FOS+/EGR-1+ double-positive nuclei fraction z-score (KCl minus unstimulated); higher = stronger activity-induced IEG response
Conditions: 5 µM; treatment: days 7-14 after plating, readout day 21

SMILES | KCl-induced FOS+/EGR-1+ double-positive nuclei fraction z-score
Oc1c(F)cc(-c2cnccc2-c2ccc(N3CCOCC3)cc2)cc1F | -0.0129
N=C(N)c1ccc(N=NNc2ccc(C(=N)N)cc2)cc1 [Diminazene Aceturate] | -0.304
Oc1ccc(OCc2ccccc2)cc1 [Monobenzone] | 0.07
CN1CC[C@H](c2c(O)cc(O)c3c(=O)cc(-c4ccccc4Cl)oc23)[C@H](O)C1 [Flavopiridol HCl] | -1.24
NCCCC[C@H](N[C@@H](CCc1ccccc1)C(=O)O)C(=O)N1CCC[C@H]1C(=O)O [Lisinopril] | -0.333
CCCc1nc2c(C)cc(-c3nc4ccccc4n3C)cc2n1Cc1ccc(-c2ccccc2C(=O)O)cc1 [Telmisartan] | -0.808
CN(C)C(=O)COC(=O)Cc1ccc(OC(=O)c2ccc(NC(=N)N)cc2)cc1 [Camostat Mesilate] | 2.42
CCN1CCN(Cc2ccc(C(=O)Nc3ccc(C)c(Oc4ccc5c(c4)CC(=O)N5)c3)cc2C(F)(F)F)CC1 | 0.179
CCCc1nn(C)c2c(=O)[nH]c(-c3cc(S(=O)(=O)N4CCN(C)CC4)ccc3OCC)nc12 [Sildenafil Citrate] | 0.695
COc1cc2ncnc(Sc3nnc(C)s3)c2cc1OC | -0.339
Cc1cccc(-c2[nH]c(C(C)(C)C)nc2-c2ccc3nccnc3c2)n1 | -1.18
N#C[C@@H]1C[C@@H]2C[C@@H]2N1C(=O)[C@@H](N)C12CC3CC(CC(O)(C3)C1)C2 [Saxagliptin hydrate] | 0.619
Cc1cc(C)c(CNC(=O)c2cc(-c3ccc(N4CCN(C)CC4)nc3)cc3c2c(C)cn3C(C)C)c(=O)[nH]1 | 1.99
COCCc1ccc(OCC(O)CNC(C)C)cc1 (centres undefined) [Metoprolol Tartrate] | 0.32
Cc1cc(OCc2nnc(SC3CCCC3)n2-c2cccnc2)ccc1-c1ccc(S(C)(=O)=O)cc1 | 0.0247
COc1nc(OCc2cccc(-c3ccccc3)c2C)ccc1CNCCNC(C)=O [PD-1/PD-L1 inhibitor 2] | -0.721
CC1(C)S[C@@H]2[C@H](NC(=O)[C@H](N)c3ccccc3)C(=O)N2[C@H]1C(=O)O [Ampicillin sodium] | 0.813
O=C(c1cn(Cc2cncn2Cc2ccc(Br)cc2)cc1-c1cccc2ccccc12)N1CCOCC1 | 0.256
Cc1[nH]c2ccccc2c1CCNC(=O)c1cccs1 | 2.82
C#Cc1cccc(Nc2ncnc3cc4c(cc23)OCCOCCOCCO4)c1 [Icotinib] | 0.108

A section from further up, for reference:
SMILES | KCl-induced FOS+/EGR-1+ double-positive nuclei fraction z-score
COCCc1ccc(OCC(O)CNC(C)C)cc1 (centres undefined) [Metoprolol Tartrate] | 0.32
Cc1cc(OCc2nnc(SC3CCCC3)n2-c2cccnc2)ccc1-c1ccc(S(C)(=O)=O)cc1 | 0.0247

Additional structures

SMILES | KCl-induced FOS+/EGR-1+ double-positive nuclei fraction z-score
CCNc1nc(Nc2cc(F)c(C(=O)N3CCOCC3)cc2OC)ncc1C(F)(F)F | 3.01
Cc1cccn2c(=O)c(-c3nnn[nH]3)cnc12 [Pemirolast potassium] | -0.779
COc1cc(OC2CCN(C)CC2)ccc1Nc1ncc2c(n1)n(C1CCCC1)c(=O)n2C | -1.49
C[C@@H](O[C@H]1OCCN(Cc2nn(P(=O)(O)O)c(=O)[nH]2)[C@H]1c1ccc(F)cc1)c1cc(C(F)(F)F)cc(C(F)(F)F)c1 [Fosaprepitant dimeglumine salt] | -0.225
c1ccc(C2CN3CCSC3=N2)cc1 (single isomer, unassigned; (-)) [(-)-Tetramisole] | 0.606
NCCCCCC(=O)O [_6-__-_Aminocaproic acid] | 2.67
CC(=O)Nc1nnc(S(N)(=O)=O)s1 [Acetazolamide] | 0.28
CCCc1nc(C)c2c(=O)nc(-c3cc(S(=O)(=O)N4CCN(CC)CC4)ccc3OCC)[nH]n12 [Vardenafil HCl Trihydrate] | 0.765
CCCCOc1ccc(OCCCN2CCOCC2)cc1 [Pramoxine HCl] | -0.805
O=C(O)/C=C/c1ccc(Cn2ccnc2)cc1 [Ozagrel] | 1.09
CCN(CC)CCOc1ccc(C(=C(Cl)c2ccccc2)c2ccccc2)cc1 [Clomifene citrate] | -1.34
O=C(O)C(Cc1c[nH]c2ccccc12)N1C(=O)c2ccccc2C1=O (centres undefined) | 0.0858
COC(=O)c1ccc2c(c1)[nH]c1ncnc(NCCCN3CCCCC3)c12 | 3.47
CC(=O)S[C@@H]1CC2=CC(=O)CC[C@]2(C)[C@H]2CC[C@@]3(C)[C@@H](CC[C@@]34CCC(=O)O4)[C@H]12 [Spironolactone] | 1.78
CC12CC3CC(C)(C1)CC(N)(C3)C2 [Memantine HCl] | -1.49
C1N2CN3CN1CN(C2)C3 [Methenamine] | 1.77
Cc1ccccc1N1C(=O)c2cc(S(N)(=O)=O)c(Cl)cc2NC1C (centres undefined) [Metolazone] | 1.47
CN1CCN2c3ncccc3Cc3ccccc3C2C1 (centres undefined) [Mirtazapine] | 1.87
CC(=O)Oc1cc(C(F)(F)F)ccc1C(=O)O [Triflusal] | -0.696

Source: the supplement of paper PMC11348887
